# Assay results taken from PubChem BioAssay AID601 (SRMLSC, 2007).
# The list shows a part of the results.
# Assay: reversal of MRP1-mediated doxorubicin resistance, pilot screen, H69AR cells, doxorubicin co-treatment (AID 601)
# Conditions: CellTiter-Glo, 72 h, at 10 µM
# [1] = H69AR cells + 2 uM doxorubicin, measured here: viability with 2 uM doxorubicin, stronger effect = lower value
# [2] = H69AR cells, compound alone cytotoxicity
SMILES,viability [1],viability [2]
CCOP1(=S)c2c(C)nn(CCC#N)c2N=C(c2ccccc2F)N1C (stereo not given),79.6%,79.3%
Cc1ccc(C)c(NP(C)(=O)Oc2ccccc2)c1 (stereo not given),87.5%,91.4%
Cc1nn(-c2ccccc2)c2c1P(=O)(N1CCOCC1)N(C)C(c1ccccc1)=N2 (stereo not given),96.4%,89.8%
CP(=S)(Nn1cnnc1)Oc1ccccc1 (stereo not given),93.6%,83.6%
O=C(COc1ccccc1)OC1CN2CCC1CC2 (stereo not given),96.1%,105%
COP1(=S)c2c(C)nn(CCC#N)c2N=C(c2ccc(F)cc2)N1C (stereo not given),82.5%,78.2%
CP(=O)(Nc1ccccn1)Oc1ccccc1 (stereo not given),95.8%,100%
CN(C)CCOC(=O)C(O)(c1ccccc1)C1CCCCC1 (stereo not given),83.2%,93.2%
CP(=O)(Nc1ccc2c(c1)OCCO2)Oc1ccccc1 (stereo not given),88.3%,87.5%
O=P(Nc1nccs1)(c1ccccc1)c1ccccc1,92.2%,103%
